Positions count from the first letter of the chain named. These are yes or no findings as the source states them, for the method shown. Some results given as binding are weak or reduced against the parent protein; the word gives no strength.
Experiments:
[1] = target: human transglutaminase type 2 (TG2) (human) (UniProt P21980); test: ELISA, hybridoma conditioned medium, plates coated with recombinant TG (100 ng/well) [panel A]
[2] = target: human transglutaminase type 2 (TG2) (human) (UniProt P21980); test: ELISA, purified IgG at 0.1 ug/ml, plates coated with 100 ng of each TG [panel B]
[3] = target: human transglutaminase type 2 (TG2) (human) (UniProt P21980); test: western blot, reducing gel
mouse TG2 (mouse) = mouse TG2 (mouse) (UniProt P21981); test: western blot and ELISA
rat TG2 (rat) = rat TG2 (rat) (UniProt Q9WVJ6); test: western blot and ELISA
[4] = target: human transglutaminase type 2 (TG2) (human) (UniProt P21980); test: ELISA, hybridoma supernatant
[5] = target: cynomolgus monkey TG2 (cynomolgus monkey); test: ELISA on immobilised cynomolgus monkey TG2
[6] = target: cynomolgus monkey TG2 (cynomolgus monkey); test: Biacore, antibody captured on an anti-human IgG1 (Fc) chip, cynomolgus monkey TG2 injected
[7] = target: cynomolgus monkey TG2 (cynomolgus monkey); test: SPR (Biacore)
[8] = target: human transglutaminase type 2 (TG2) (human) (UniProt P21980); test: Western blot of 25 ug HepG2 lysate probed with AB1 IgG at 1 ng/ml [panel B]
[9] = target: human transglutaminase type 2 (TG2) (human) (UniProt P21980); test: western blot of 25 µg HepG2 lysate
[10] = target: human transglutaminase type 2 (TG2) (human) (UniProt P21980); test: SPR (Biacore)
[11] = target: human transglutaminase type 2 (TG2) (human) (UniProt P21980); test: ELISA on immobilised human TG2

Protein sequences, listed by entry. Tags and fused reporters are not part of them. Lines headed by an entry give the natural chain unless they say otherwise; changes in a name come on top.
UniProt P21980: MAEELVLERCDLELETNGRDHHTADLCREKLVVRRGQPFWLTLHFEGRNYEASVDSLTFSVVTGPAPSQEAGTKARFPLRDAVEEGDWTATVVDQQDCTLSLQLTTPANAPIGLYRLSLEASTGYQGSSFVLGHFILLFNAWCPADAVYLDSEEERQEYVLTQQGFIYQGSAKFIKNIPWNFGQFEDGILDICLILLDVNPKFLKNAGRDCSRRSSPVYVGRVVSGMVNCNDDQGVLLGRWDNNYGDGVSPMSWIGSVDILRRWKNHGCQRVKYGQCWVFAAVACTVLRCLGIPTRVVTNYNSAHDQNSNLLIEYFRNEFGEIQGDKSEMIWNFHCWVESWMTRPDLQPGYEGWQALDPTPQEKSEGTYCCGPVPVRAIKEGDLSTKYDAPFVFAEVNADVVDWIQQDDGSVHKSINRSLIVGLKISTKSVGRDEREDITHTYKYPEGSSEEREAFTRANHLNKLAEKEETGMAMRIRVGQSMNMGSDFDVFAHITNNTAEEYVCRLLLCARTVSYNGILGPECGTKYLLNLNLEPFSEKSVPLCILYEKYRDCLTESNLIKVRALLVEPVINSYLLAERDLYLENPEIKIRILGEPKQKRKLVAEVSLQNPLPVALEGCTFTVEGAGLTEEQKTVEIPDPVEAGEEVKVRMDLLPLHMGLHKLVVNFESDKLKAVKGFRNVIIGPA
UniProt P21981: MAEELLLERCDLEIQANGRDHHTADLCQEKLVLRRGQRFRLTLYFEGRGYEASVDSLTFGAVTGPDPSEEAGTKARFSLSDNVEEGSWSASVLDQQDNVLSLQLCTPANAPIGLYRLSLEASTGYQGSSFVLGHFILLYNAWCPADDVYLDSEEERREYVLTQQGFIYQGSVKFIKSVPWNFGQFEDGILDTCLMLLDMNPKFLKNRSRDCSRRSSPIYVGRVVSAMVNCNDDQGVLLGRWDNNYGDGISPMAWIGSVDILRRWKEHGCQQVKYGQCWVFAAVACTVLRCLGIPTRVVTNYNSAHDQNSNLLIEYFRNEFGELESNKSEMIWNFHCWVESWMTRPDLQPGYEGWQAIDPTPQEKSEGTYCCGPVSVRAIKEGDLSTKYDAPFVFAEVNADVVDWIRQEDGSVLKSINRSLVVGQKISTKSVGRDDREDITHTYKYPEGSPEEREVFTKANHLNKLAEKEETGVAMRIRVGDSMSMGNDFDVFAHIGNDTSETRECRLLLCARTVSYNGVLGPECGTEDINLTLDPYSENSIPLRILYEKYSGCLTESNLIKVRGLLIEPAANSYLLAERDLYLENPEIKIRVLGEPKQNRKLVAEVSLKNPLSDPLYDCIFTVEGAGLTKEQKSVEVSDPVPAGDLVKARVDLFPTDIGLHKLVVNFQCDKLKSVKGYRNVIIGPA
UniProt Q9WVJ6: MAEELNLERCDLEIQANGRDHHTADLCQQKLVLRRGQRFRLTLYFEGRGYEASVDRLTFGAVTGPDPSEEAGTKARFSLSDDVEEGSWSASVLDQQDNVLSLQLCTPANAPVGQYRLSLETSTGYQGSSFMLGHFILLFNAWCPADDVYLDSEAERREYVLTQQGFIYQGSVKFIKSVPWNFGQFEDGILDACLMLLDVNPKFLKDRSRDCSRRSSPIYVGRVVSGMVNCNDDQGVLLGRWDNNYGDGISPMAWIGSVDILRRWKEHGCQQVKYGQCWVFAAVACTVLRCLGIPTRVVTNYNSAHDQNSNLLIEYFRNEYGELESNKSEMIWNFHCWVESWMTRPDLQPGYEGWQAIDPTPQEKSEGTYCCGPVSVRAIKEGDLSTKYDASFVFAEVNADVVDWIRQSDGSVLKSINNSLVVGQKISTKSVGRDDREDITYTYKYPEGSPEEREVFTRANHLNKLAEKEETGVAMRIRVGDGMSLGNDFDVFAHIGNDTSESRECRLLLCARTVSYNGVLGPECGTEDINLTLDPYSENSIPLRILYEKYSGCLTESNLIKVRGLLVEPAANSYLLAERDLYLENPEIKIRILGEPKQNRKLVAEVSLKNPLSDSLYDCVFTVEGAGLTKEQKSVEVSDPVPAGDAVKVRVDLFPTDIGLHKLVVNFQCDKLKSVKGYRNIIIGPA

Measured: binding

B1: AG9 murine monoclonal antibody (antibody, V domains shown)
VH: EVQLQQSGPELVKPGASVKMSCRASGYTFTTYVIHWVKQKPGQGLEWIGYINPYNDGARYNEKFKGKATLTSDKSSTTAYMELSSLTSEDSAVYYCARLSSDYWGQGTTLTVSS
VL: DVLMTQNPLSLPVSLGDQASISCRSSRSIEHSNGNTYLEWYLQKPGQSPKFLIYKVSNRFSGVPDRFSGSGSGTDFTLRISSVEAEDLGVYYCFQGSHVPFTFGGGTKLEIK
binds: [1] | [2] | [3] | mouse TG2 (mouse) | rat TG2 (rat) | [4]

B2: AH3 murine monoclonal antibody (antibody, V domains shown)
VH: B1 VH
VL: B1 VL
binds: [1] | [2] | [3] | mouse TG2 (mouse) | rat TG2 (rat) | [4]

B3: hAB004 (hAB001AE) humanised AB1 antibody (antibody, V domains shown)
VH: EVQLLESGGGLVQPGGSLRLSCAASGFTFSSSAMSWVRQAPGKGLEWVSTISVGGGKTYYPDSVKGRFTISRDNSKNTLYLQMNSLRAEDTAVYYCAKLISLYWGQGTLVTVSS
VL: EIVLTQSPSSLSASVGDRVTITCKASQDINSYLTWYQQKPGKAPKLLIYRTNRLFDGVPSRFSGSGSGTDFFFTISSLQPEDFGTYYCLQYDDFPYTFGGGTKLEIK
binds: [5] | [6] | [7]

B4: AB1 murine monoclonal antibody (antibody, V domains shown)
VH: EVQLVESGGGLVKPGGSLKLSCAASGFTLSSSAMSWVRQTPDRRLEWVATISVGGGKTYYPDSVKGRFTISRDNAKNTLYLQMNSLRSEDTAMYYCAKLISLYWGQGTTLTVSS
VL: DIKMTQSPSSMYASLGERVTITCKASQDINSYLTWFQQKPGKSPKTLIYRTNRLFDGVPSRFSGSGSGQDFFLTISSLEYEDMGIYYCLQYDDFPYTFGGGTKLEIK
not listed: [5] | [6] | [7] | [10] | [11]
binds: all other assays above

B5: hBB001BB humanised BB7 antibody (antibody, V domains shown)
VH: B3 VH with F27I, T28I, S49A, V53S, G56R, K57S, I70V, N74S, L102P
VL: DIKMTQSPSSLSASVGDRVTITCKASQDINSYLTWFQQKPGKAPKTLIYLTNRLMDGVPSRFSGSGSGQEFLLTISSLQPEDFATYYCLQYVDFPYTFGQGTKVEIK
binds: [5] | [10] | [7] | [11]

B6: cDC001 chimeric antibody (murine DC1 variable regions) (antibody, human IgG1, V domains shown)
VH: EVQLVESGGGLVKPGGSLKLSCAASGFTLSTHAMSWVRQTPEKRLEWVATISSGGRSTYYPDSVKGRFTISRDNVKNTLYLQLSSLRSEDTAVYFCARLISTYWGQGTTLTVSS
VL: B4 VL with K3T, M11I, T46I, R50L, T51V, F55V, F71Y, F72A
binds: [5] | [7]

B7: cBB001 chimeric antibody (murine BB7 variable regions) (antibody, human IgG1, V domains shown)
VH: AVQLVESGGGLVKPGGSLKLSCAASGIIFSSSAMSWVRQTPEKRLEWVATISSGGRSTYYPDSVKGRFTVSRDSAKNTLYLQMDSLRSEDTAIYYCAKLISPYWGQGTTLTVSS
VL: B4 VL with D1A, T20I, R50L, F55M, D70E, F72L, S77G, Y80H, D92V
binds: [5] | [7]

B8: hBB001AA humanised BB7 antibody (antibody, V domains shown)
VH: B3 VH with V53S, G56R, K57S, L102P
VL: B5 VL with K3Q, T46S, Q69T, E70D, L72F
binds: [5] | [10] | [7] | [11]

B9: hAB005 (hAB001AJ) humanised AB1 antibody (antibody, V domains shown)
VH: B3 VH
VL: B5 VL with K3Q, T46S, L50R, M55F, Q69T, E70D, L72F, V92D
binds: [7]

Source: patent US10005846
